Results are given in words; binding and its absence hold for the method and conditions named. Some binding calls cover weakened binding; strength is not graded here.

Chains of the proteins cited; added tags and fusions are not shown. Residues count along the entry.
UniProt Q6VS19: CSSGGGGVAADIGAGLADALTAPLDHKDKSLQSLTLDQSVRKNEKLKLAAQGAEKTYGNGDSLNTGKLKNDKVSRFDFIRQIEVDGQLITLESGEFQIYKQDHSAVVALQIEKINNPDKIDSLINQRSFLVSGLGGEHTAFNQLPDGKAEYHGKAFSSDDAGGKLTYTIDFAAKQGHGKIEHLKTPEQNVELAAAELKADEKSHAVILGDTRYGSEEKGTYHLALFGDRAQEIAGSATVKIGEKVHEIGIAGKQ
UniProt P08603, residues 19-1231: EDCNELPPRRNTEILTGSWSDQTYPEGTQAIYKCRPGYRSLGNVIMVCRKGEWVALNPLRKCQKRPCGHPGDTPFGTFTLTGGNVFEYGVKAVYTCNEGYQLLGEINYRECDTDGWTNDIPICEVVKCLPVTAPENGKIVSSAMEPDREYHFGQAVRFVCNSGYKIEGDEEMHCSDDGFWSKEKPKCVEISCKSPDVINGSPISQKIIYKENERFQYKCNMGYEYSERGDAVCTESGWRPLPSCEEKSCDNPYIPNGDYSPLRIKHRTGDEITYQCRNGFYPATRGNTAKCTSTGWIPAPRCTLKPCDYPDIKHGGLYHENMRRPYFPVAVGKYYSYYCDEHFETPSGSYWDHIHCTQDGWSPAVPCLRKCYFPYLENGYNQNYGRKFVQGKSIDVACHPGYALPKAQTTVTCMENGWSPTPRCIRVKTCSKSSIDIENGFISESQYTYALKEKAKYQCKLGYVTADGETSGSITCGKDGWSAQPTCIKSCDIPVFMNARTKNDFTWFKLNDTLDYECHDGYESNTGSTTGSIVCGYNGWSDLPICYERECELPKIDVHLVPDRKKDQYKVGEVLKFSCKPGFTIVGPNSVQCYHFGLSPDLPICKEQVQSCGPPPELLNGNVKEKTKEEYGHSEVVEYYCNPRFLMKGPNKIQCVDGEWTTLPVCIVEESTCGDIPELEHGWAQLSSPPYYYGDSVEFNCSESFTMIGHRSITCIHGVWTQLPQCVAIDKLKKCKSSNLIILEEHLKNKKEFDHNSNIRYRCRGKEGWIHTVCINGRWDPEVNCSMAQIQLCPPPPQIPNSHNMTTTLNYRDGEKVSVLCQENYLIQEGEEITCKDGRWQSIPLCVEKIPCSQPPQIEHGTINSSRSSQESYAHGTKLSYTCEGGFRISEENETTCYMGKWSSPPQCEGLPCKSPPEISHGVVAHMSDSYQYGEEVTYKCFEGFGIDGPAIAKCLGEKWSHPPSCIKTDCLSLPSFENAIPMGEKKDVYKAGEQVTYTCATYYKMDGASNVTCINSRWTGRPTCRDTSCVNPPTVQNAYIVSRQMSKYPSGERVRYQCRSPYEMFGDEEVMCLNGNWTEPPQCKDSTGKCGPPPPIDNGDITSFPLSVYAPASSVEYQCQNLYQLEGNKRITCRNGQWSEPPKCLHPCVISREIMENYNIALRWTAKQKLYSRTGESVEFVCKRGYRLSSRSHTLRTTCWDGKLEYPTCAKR

In the experiment the target is native fHbp v2.16 on live N. meningitidis strain UK104 (M08-240104) (Neisseria meningitidis) (UniProt Q6VS19). Kind of experiment: flow cytometry on cells; only the binder purified.

“human factor H (from UniProt P08603 19-1231)”: the binding result is reported as “binds”.
